Measurements reported in the supplement of paper PMC7858590.
In all, about 3,800 compounds were measured (“cell shape (eccentricity) Z-score vs DMSO control”: median about 1.1, lowest 2% from about -4.7 on). The list shows a part of the results.

System: human monocyte-derived macrophages (M0)
Test: cell shape (eccentricity) Z-score vs DMSO control; higher = more elongated, M2-like morphology
Conditions: 20 µM; 24 h; macrophage state: M0 (M-CSF)
Method: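 Primary human monocyte-derived macrophages (M-CSF differentiated, pooled from 4 donors, 5000 cells/well in 384-well plates) were treated with each compound at 20 uM for 24 h, then fixed and stained with phalloidin/DAPI and imaged on an Opera Phenix (6 fields, about 1000 cells/well). Cell eccentricity was measured with CellProfiler, and a Z-score (t-test) was computed against 4 DMSO control wells in the same row. Negative values mean round (M1-like) cells and positive values mean elongated (M2-like) cells; the paper's hit cutoffs are Z <= -4 (M1) and Z >= 6 (M2). Scale: negative = round, M1-like.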

| SMILES | cell shape (Z-score) |
| --- | --- |
| CCOC(=O)c1cncn1C(C)c1ccccc1 (stereo not drawn) | 1.75 |
| C=C1[C@]23C(=O)O[C@@H](C)[C@]2(O)C(=O)O[C@@]1(C)[C@H](OC(C)=O)C1=C(C)[C@@]2(C=CC(=O)OC2(C)C)CCC13C (stereo partly drawn) | 3.16 |
| O=[N+]([O-])O[C@@H]1CO[C@H]2[C@@H]1OC[C@@H]2O | -0.819 |
| CC(=O)O[C@H]1C[C@H](O[C@H]2[C@@H](O)C[C@H](O[C@H]3[C@@H](O)C[C@H](O[C@H]4CC[C@@]5(C)C(CCC6C5C[C@@H](O)[C@]5(C)[C@@H](C7=CC(=O)OC7)CC[C@]65O)C4)O[C@@H]3C)O[C@@H]2C)O[C@H](C)[C@H]1O[C@@H]1O[C@H](CO)[C@@H](O)[C@H](O)[C@H]1O (stereo partly drawn) | 1.67 |
| COc1cc([C@@H]2c3cc4c(cc3[C@H](O)[C@H]3COC(=O)[C@@H]23)OCO4)cc(OC)c1OC | -0.875 |
| CC12CCC3C(CCC4C(=O)C(=O)CCC43C)C1CCC2=O (stereo not drawn) | 3.82 |
| O=C(Cc1ccc(Cl)c(Cl)c1)N1CCCCC1CN1CCCC1 (stereo not drawn) | -0.746 |
| Cc1ncsc1CCCl | 1.98 |
| Fc1ccc(C(OCCN2CCN(CC=Cc3ccccc3)CC2)c2ccc(F)cc2)cc1 | -4.91 |
| CC1(C)C(=O)C=C[C@@]2(C)C1C(=O)C(=O)[C@]1(C)C2CC[C@@]2(C)[C@H](c3ccoc3)C[C@H]3O[C@]321 (stereo partly drawn) | -0.853 |
| CC(=O)OC[C@]12CCC(C)=CC1O[C@@H]1[C@H](O)[C@@H](O[C@H]3O[C@H](CO)[C@@H](O)[C@H](O)[C@H]3O)[C@@]2(C)C12CO2 (stereo partly drawn) | 1.02 |
| COC(=O)[C@@]12C(=O)C(C)C(=O)[C@]1(C)C(C)=C[C@H]1[C@]3(C)CC[C@H](OC(C)=O)C(C)(C)[C@H]3CC[C@@]12C (stereo partly drawn) | 2.25 |
| CCCCOC(=O)c1ccccc1C(=O)OCCCC | 1.33 |
| C[N+]1(C)C2CC(OC(=O)[C@@H](CO)c3ccccc3)CC1C1OC12 (stereo partly drawn) | 2.03 |
| CC(=O)Oc1ccc(/C=C/c2cc(OC(C)=O)cc(OC(C)=O)c2)cc1 | -1.46 |
| COC(=O)C(c1ccccc1)C1CCCCN1 (stereo not drawn) | -1.01 |
| CCCN(CCC)C1CCc2c(OC)cccc2C1C (stereo not drawn) | 4.87 |
| C[CH2][Hg][S]c1ccccc1C(=O)O | 1.12 |
| CCC(C)C(=O)O[C@H]1[C@H](O)C2C(CN3CC(C)CCC3[C@@]2(C)O)C2C[C@]34O[C@]5(O)C(OC(=O)C(C)(O)CC)CC[C@@]3(C)C5C(OC(C)=O)[C@@H](OC(C)=O)C4[C@@]21O (stereo partly drawn) | -1.3 |
| CC[C@@H](C(=O)[C@@H](C)[C@@H](O)[C@H](C)[C@@H]1O[C@@H]([C@@H](CC)C(=O)O)CC[C@@H]1C)[C@H]1OC2(C=C[C@@H](O)[C@]3(CC[C@@](C)(C4CC[C@](O)(CC)[C@H](C)O4)O3)O2)[C@H](C)C[C@@H]1C (stereo partly drawn) | 1.16 |
| CCN(CC)CCOC1CCC2(C)C(=CCC3C4CCC(=O)C4(C)CCC32)C1 (stereo not drawn) | -2.74 |
| CNc1ccc2oc(C[C@H]3O[C@@]4(CC[C@H]3C)O[C@H]([C@H](C)C(=O)c3ccc[nH]3)[C@H](C)C[C@H]4C)nc2c1C(=O)O | 7.41 |

Grouped by structure, those above with a COOH group

| SMILES | cell shape (Z-score) |
| --- | --- |
| C[CH2][Hg][S]c1ccccc1C(=O)O | 1.12 |
| CC[C@@H](C(=O)[C@@H](C)[C@@H](O)[C@H](C)[C@@H]1O[C@@H]([C@@H](CC)C(=O)O)CC[C@@H]1C)[C@H]1OC2(C=C[C@@H](O)[C@]3(CC[C@@](C)(C4CC[C@](O)(CC)[C@H](C)O4)O3)O2)[C@H](C)C[C@@H]1C (stereo partly drawn) | 1.16 |
| CNc1ccc2oc(C[C@H]3O[C@@]4(CC[C@H]3C)O[C@H]([C@H](C)C(=O)c3ccc[nH]3)[C@H](C)C[C@H]4C)nc2c1C(=O)O | 7.41 |

The listing continues:

| SMILES | cell shape (Z-score) |
| --- | --- |
| CNc1ccccc1C(=O)O | 1.47 |
| CCN1C[C@]2(C)CC[C@H](OC)[C@@]34C2[C@H](O)C([C@@H]13)[C@@]1(OC)C[C@H](OC)[C@H]2C[C@@H]4[C@@H]1[C@H]2O | 1.73 |
| COC1=CC23CCN(C)[C@H](Cc4cc(OC)c(OC)cc42)C3=CC1=O | 0.695 |
| NCC(CS(=O)(=O)O)c1ccc(Cl)cc1 (stereo not drawn) | 1.7 |
| COC1CC(O[C@H]2CC[C@@]3(C)C(CCC4C3CC[C@]3(C)C(C5=CC(=O)OC5)CCC43O)C2)OC(C)C1OC1OC(COC2OC(CO)C(O)C(O)C2O)C(O)C(O)C1O (stereo partly drawn) | -1.09 |
| C[C@@H]1O[C@@H](O[C@@H]2C=C3CC[C@@H]4C(CC[C@]5(C)[C@@H](c6ccc(=O)oc6)CC[C@]45O)[C@@]3(C)CC2)[C@H](O)[C@H](O)[C@H]1O (stereo partly drawn) | -0.672 |
| CC(=O)O[C@H]1CC[C@]2(C=O)[C@H]3CC[C@]4(C)[C@@H](C5=CC(=O)OC5)CC[C@]4(O)[C@@H]3CC[C@]2(O)C1 | 2.05 |
| O=C1/C(=C/c2ccccc2)C[C@@]2(O)C3Cc4ccc(O)c5c4[C@@]2(CCN3CC2CC2)[C@H]1O5 | 9.69 |
| CN(C)Cc1c[nH]c2ccccc12 | 2.37 |
| COC(=O)N1CCN(C(=O)Cc2ccc(Cl)c(Cl)c2)C(CN2CCCC2)C1 (stereo not drawn) | 0.925 |
| Cc1c(C(=O)Nc2cccc(C(F)(F)F)c2)cc(-c2ccccc2)n1CCCN1CCOCC1 | -0.83 |
| CC(=Cc1csc(C)n1)[C@H]1C[C@@H]2O[C@]2(C)CCC[C@H](C)[C@H](O)[C@@H](C)C(=O)C(C)(C)[C@@H](O)CC(=O)O1 | 0.111 |
| COc1ccc(OC)c(C(O)C(C)NC(C)(C)C)c1 (stereo not drawn) | 0.783 |
| C/C=C(/C)C(=O)OC1CCN2CC=C(COC(=O)C(O)(C(C)O)C(C)(C)O)C12 (stereo not drawn) | 0.798 |
| C[C@]12CC[C@H](O)C[C@H]1CC[C@@H]1[C@@H]2CC[C@]2(C)[C@@H](c3ccc(=O)oc3)C[C@H]3OC132 (stereo partly drawn) | -1.84 |
| C=C(C)C1Cc2c(ccc3c(=O)c4c(oc23)COc2cc(OC)c(OC)cc2-4)O1 (stereo not drawn) | 1.42 |
| C[C@]12CCC(=O)C=C1C=CC1C2CC[C@@]2(C)C1CC[C@@]2(O)CCC(=O)O (stereo partly drawn) | 3.47 |
| O=C1N[C@@H]2C(=C[C@H](O)[C@@H](O)[C@H]2O)c2cc3c(c(O)c21)OCO3 | -0.517 |
| Cc1[nH]c2ccc(O)cc2c1CCN | 3.19 |
| N#Cc1nn(-c2c(Cl)cc(C(F)(F)F)cc2Cl)c(N)c1S(=O)C(F)(F)F (stereo not drawn) | -0.378 |
| O=C1CC=C2C3CC4N(CCC45c4ccccc4N1C25)C/C3=C/CO (stereo not drawn) | 0.376 |
